Screening data, single-dose tests

Amino acid sequences for entries named in this document (tags omitted). Residues count along the entry.
UniProt P9WFT3, whole entry: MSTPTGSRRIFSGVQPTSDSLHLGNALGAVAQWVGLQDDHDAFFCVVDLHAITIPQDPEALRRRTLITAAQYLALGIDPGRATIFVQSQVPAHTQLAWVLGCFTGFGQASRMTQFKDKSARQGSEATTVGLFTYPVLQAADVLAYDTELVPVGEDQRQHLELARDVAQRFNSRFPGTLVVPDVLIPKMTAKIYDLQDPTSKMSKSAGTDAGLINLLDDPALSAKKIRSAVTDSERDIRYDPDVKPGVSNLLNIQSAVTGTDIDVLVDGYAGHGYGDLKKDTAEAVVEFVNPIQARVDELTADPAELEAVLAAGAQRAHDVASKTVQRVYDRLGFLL
UniProt I6X8D2, whole entry: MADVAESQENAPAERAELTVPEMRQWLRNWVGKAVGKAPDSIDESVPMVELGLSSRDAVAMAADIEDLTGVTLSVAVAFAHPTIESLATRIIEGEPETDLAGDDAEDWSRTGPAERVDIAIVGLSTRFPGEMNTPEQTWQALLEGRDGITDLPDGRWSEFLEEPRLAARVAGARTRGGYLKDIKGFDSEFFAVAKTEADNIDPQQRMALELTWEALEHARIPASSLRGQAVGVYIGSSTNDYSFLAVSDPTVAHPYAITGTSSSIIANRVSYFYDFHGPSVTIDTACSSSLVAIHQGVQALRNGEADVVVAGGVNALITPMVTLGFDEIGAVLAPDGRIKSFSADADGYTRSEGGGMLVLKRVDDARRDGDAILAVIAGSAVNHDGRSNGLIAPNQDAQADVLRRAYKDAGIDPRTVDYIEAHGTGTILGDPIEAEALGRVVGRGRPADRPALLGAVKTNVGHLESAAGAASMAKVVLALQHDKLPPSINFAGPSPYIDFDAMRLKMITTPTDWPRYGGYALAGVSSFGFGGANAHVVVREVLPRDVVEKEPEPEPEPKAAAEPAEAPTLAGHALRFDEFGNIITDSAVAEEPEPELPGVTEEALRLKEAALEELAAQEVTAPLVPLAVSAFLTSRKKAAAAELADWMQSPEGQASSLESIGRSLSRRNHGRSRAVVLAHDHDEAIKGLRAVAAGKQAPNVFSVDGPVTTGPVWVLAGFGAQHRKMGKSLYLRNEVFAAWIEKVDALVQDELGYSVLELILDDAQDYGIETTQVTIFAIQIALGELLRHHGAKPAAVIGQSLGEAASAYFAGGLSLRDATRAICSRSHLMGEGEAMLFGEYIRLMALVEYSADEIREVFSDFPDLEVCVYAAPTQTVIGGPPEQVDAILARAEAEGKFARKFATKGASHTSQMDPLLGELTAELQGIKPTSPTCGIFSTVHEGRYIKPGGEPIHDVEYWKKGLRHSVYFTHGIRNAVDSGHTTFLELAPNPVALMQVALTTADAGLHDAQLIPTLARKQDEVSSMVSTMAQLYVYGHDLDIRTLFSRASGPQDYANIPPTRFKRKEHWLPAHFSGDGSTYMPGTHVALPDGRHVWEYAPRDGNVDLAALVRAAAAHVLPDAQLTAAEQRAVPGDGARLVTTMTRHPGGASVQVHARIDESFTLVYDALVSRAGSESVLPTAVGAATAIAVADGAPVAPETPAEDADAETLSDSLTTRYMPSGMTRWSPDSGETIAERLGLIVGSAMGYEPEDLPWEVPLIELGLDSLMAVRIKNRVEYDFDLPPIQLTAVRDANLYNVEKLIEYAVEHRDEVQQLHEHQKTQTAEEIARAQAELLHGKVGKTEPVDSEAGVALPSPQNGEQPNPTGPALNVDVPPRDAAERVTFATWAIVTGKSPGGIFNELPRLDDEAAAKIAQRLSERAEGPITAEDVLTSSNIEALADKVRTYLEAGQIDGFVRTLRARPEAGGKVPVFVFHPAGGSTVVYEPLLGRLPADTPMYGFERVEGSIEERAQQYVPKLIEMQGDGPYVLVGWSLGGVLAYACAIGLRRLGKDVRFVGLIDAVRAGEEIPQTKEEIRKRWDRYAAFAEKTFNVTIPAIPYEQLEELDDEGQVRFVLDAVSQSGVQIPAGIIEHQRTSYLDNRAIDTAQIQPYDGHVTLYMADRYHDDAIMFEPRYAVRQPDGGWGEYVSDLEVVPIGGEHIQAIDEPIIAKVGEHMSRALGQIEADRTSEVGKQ
UniProt A4I591, 1-473: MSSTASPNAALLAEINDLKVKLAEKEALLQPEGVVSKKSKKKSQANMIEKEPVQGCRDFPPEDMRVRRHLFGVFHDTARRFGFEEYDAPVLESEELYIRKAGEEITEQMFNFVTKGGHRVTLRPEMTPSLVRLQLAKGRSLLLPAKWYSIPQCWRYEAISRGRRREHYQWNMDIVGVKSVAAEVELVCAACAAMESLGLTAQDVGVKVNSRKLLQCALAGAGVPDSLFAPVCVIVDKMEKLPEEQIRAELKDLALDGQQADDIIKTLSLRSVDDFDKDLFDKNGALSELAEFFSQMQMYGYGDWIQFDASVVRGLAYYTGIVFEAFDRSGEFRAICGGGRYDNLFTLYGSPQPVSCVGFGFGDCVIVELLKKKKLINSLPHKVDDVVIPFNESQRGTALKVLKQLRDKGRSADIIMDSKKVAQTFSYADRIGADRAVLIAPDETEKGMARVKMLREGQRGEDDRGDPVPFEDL
UniProt Q8IDJ8, 1-583: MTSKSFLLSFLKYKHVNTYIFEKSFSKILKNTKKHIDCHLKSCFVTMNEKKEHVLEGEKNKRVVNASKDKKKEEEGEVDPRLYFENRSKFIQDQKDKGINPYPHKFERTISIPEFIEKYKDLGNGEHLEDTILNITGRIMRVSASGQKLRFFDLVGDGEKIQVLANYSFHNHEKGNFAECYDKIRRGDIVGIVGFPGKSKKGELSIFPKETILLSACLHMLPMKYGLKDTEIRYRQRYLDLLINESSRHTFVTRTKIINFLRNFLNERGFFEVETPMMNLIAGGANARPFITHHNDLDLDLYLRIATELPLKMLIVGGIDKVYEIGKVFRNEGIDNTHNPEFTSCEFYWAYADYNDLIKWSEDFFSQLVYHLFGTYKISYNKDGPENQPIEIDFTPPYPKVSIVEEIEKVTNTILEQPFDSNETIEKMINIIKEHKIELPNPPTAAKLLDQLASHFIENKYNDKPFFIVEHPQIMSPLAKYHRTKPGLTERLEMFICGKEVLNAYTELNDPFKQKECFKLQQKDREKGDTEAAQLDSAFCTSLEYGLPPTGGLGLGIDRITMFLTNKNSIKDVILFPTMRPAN

Measurements from “University of Dundee, Small-Polar-MMV Screening Library” (2021), ChEMBL document CHEMBL3988442.

MtTrpRS: 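Tryptophan-tRNA ligase, Mycobacterium tuberculosis (UniProt P9WFT3). Enzyme assay of tryptophanyl-tRNA synthetase; the read-out is not stated. Compounds at 10 µM. Higher most likely means stronger inhibition; the record gives no direction and few retests gave an IC50. Size under these conditions: about 65,000 compounds, about 64 of them at 50% or above in at least one test.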
Pks13 thioesterase: 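Enzyme assay of the thioesterase domain of polyketide synthase 13; the read-out is not stated. Target: Polyketide synthase Pks13, Mycobacterium tuberculosis (UniProt I6X8D2). Concentration: 30 µM. Higher reads as stronger inhibition (inferred from which compounds were picked for retests). Of about 67,000 compounds tested this way, about 300 (0.46%) reached 50% or more in at least one test.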
LiHisRS: 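Enzyme assay of histidyl-tRNA synthetase; the read-out is not stated. Target: Histidine-tRNA ligase, Leishmania infantum (UniProt A4I591). Compounds at 30 µM. Direction is inferred from retests: higher values go with stronger inhibition. The assay is labelled LdHisRS but filed under L. infantum. Size under these conditions: about 69,000 compounds, about 410 of them at 50% or above in at least one test.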
PfKRS1: 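Enzyme assay of the cytosolic lysyl-tRNA synthetase in 384-well plates, read by luminescence. Target: Lysine-tRNA ligase, Plasmodium falciparum 3D7 (UniProt Q8IDJ8). Concentration: 30 µM. Direction is inferred from only a few compounds that gave an IC50; most scored high, so higher reads as stronger inhibition. Of about 69,000 compounds tested this way, about 49 (0.071%) reached 50% or more in at least one test.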

Each number is a percent effect as filed.
The controls that fix the scale are not given in the record; negative values are as filed.
The compounds are a random part of those screened.

Compound | MtTrpRS | Pks13 thioesterase | LiHisRS | PfKRS1
C[C@@H](NC(=O)c1cccs1)c1onc(-c2cccnc2)c1C(=O)O | 6.331% | -2.313% | 27.03% | 2.427%
CC(C)(C)n1ncc2c1NC(=O)CC2c1cccs1 (centres unmarked) | -2.799% | -7.618% | 18.48% | -1.034%
CCOc1cccc(NCc2cnc(N3CCN(C)CC3)nc2)n1 | -1.242% | -10.33% | 16.44% | 3.764%
CCOc1ccccc1CSCCn1nc2ccccn2c1=O | -5.126% | 10.51% | -1.653% | -2.955%
COc1c(Cl)cc(Cl)cc1CN1CCC(C(N)=O)C1 (centres unmarked) | -1.214% | -14.6% | 3.371% | -0.834%
O=C1NCCCCC1Sc1ccc(F)cc1F (centres unmarked) | 2.412% | -9.453% | 21.74% | 2.762%
CCNC(=O)[C@@H]1C[C@H](N)CN1Cc1ccc(-c2ccccc2C#N)o1 | 19.65% | 11% | 17.95% | 2.812%
CN(C)c1ccc(-c2cc(C(=O)O)cc(S(=O)(=O)NC3CC3)c2)cc1 | -2.668% | -21.85% | 12.5% | 4.805%
Cc1nc(C)n(C2CCCN(C(=O)Cc3n[nH]c4ccccc34)C2)n1 (centres unmarked) | -0.3997% | -16.36% | 24.66% | 2.678%
COc1cccc(-c2noc(C3CCN(Cc4cn(C)nc4C)C3)n2)c1 (centres unmarked) | -3.917% | -9.146% | 17.14% | 5.215%
Cc1ccccc1C(NC(=O)CNC(=O)c1ccoc1C)C(C)C (centres unmarked) | 6.716% | 3.146% | 23.94% | -4.616%
COC(=O)C(NC(=O)CC(C)C)c1cc(F)ccc1F (centres unmarked) | -3.336% | -8.685% | 11.54% | 0.6916%
O=C1NC2(CCN(CC(=O)N3CCOCC3)CC2)Nc2ccccc21 | 0% | 46.76% | 10.14% | -1.209%
O=C1CCOCCN1Cc1ccc(Cl)c(Cl)c1 | 0.2894% | 12.97% | 17.5% | 1.028%
Cc1cccc(O[C@H]2COCCN(C3CCC3)C2)n1 | -4.5% | -27.78% | 24.32% | 5.697%
Cc1cc(C)nc(N2Cc3cnn(Cc4ccc(F)cc4)c3C2)n1 | -4.263% | -24.67% | 0.9709% | -0.9344%
CNc1cc2c(nn1)CCN(C(=O)C1CCCc3ccccc31)C2 (centres unmarked) | 2.124% | -45.84% | 16.85% | 6.838%
Cc1nc(N2CC[C@@H](NC(=O)c3cnccn3)[C@H](O)C2)c2ccsc2n1 | 0.6966% | -7.881% | 25% | 6.267%
COCCc1noc(C2CCCN(c3nc(N)nc4c3CCCC4)C2)n1 (centres unmarked) | 1.485% | -6.487% | 17.07% | 1.1%
Cc1nc[nH]c1CN1CCn2nc(CN3Cc4ccccc4C3)cc2C1 | 4.801% | -15.71% | 31.4% | 15.96%
CCN(Cc1c(C)nn(C)c1C)C(=O)C1COc2ccccc2C1 (centres unmarked) | -5.782% | -4.4% | 11.97% | 2.977%
O=C(Nc1cccnc1)NC1CCN(c2ccccc2OC(F)F)C1 (centres unmarked) | 1.234% | -10.33% | 9.804% | 5.797%
CC(=O)N(C)CC(=O)NC1(c2ccc(Br)cc2)CC1 | -1.06% | -7.078% | 17.58% | 0.5111%
Nc1cc2c(nn1)CCN(C(=O)CC1CCCCC1)C2 | -11.12% | -6.424% | 13.56% | 2.184%
O=C(CCNc1ncccn1)N1CCC(Nc2cccnn2)CC1 | -7.557% | 0.1643% | 11.61% | -1.249%
Cc1ccc(-c2nc(CN3CCCC(Cn4cncn4)C3)no2)cc1 (centres unmarked) | 0.9538% | 6.041% | -3.125% | -7.453%
Cc1cc(F)c(S(=O)(=O)Nc2ccn(CCCC#N)n2)cc1F | 2.113% | -8.497% | 21.05% | 6.46%
Cc1nc(N2CCOCC2)nc2c1CCN(c1nccs1)CC2 | -1.058% | -24.87% | 16.24% | -2.518%
COCc1cn([C@@H]2c3ccccc3C3(CCNCC3)[C@H]2O)nn1 | 5.877% | -10.61% | 18.27% | 5.077%
COC(=O)C1CCN(C(=O)Cn2ccc(-c3ccsc3)n2)CC1 | -4.2% | -17.38% | 22.67% | 4.406%
Cc1ccc(CNC(=O)Nc2nnc(C(C)C)s2)n1C | -0.8189% | -13.85% | 25.37% | 1.3%
Cc1ncsc1C(=O)N1CCC(c2ncncc2-c2ccnc(N)c2)C1 (centres unmarked) | -3.872% | 10.27% | 9.859% | 4.053%
CS(=O)(=O)c1ccc(-c2nc(C(=O)N3CCCC3)n3ccccc23)cc1 | -0.2593% | 74.09% | -2.759% | 1.611%
Cc1cnn(C(C)C2CC2)c1NC(=O)c1ccc(Cn2cnnn2)cc1 (centres unmarked) | -1.458% | -13.84% | 5.556% | 3.93%
CS(=O)(=O)NCCC1CCCCN1C(=O)NCCc1ccccc1 (centres unmarked) | 15.25% | -18.79% | 34.69% | -1.67%
Cc1csc(CCNC(=O)C2CCCN(C3CCOCC3)C2)n1 (centres unmarked) | 3.857% | -13.63% | 0% | 2.922%
CCOCC1CN(Cc2ccc3c(c2)OCO3)Cc2ncn(C)c21 (centres unmarked) | 3.562% | -15.34% | 13.7% | 3.561%
CCCOc1ccc(Cl)cc1C(=O)N1CCC(n2cncn2)CC1 | 2.33% | -25.83% | 13.92% | 3.14%

For reference, 4 entries once more:

* COCc1cn([C@@H]2c3ccccc3C3(CCNCC3)[C@H]2O)nn1 | MtTrpRS: 5.877%; Pks13 thioesterase: -10.61%; LiHisRS: 18.27%; PfKRS1: 5.077%
* Cc1cnn(C(C)C2CC2)c1NC(=O)c1ccc(Cn2cnnn2)cc1 (centres unmarked) | MtTrpRS: -1.458%; Pks13 thioesterase: -13.84%; LiHisRS: 5.556%; PfKRS1: 3.93%
* COCCc1noc(C2CCCN(c3nc(N)nc4c3CCCC4)C2)n1 (centres unmarked) | MtTrpRS: 1.485%; Pks13 thioesterase: -6.487%; LiHisRS: 17.07%; PfKRS1: 1.1%
* COC(=O)C1CCN(C(=O)Cn2ccc(-c3ccsc3)n2)CC1 | MtTrpRS: -4.2%; Pks13 thioesterase: -17.38%; LiHisRS: 22.67%; PfKRS1: 4.406%